Results are given in words; binding and its absence hold for the method and conditions named. Binding seen in cells or lysates may run through a third protein. A yes stands for co-enrichment or nearness to the bait. Other partners may have been found.

Chains of the proteins cited; added tags and fusions are not shown.
UniProt O61307: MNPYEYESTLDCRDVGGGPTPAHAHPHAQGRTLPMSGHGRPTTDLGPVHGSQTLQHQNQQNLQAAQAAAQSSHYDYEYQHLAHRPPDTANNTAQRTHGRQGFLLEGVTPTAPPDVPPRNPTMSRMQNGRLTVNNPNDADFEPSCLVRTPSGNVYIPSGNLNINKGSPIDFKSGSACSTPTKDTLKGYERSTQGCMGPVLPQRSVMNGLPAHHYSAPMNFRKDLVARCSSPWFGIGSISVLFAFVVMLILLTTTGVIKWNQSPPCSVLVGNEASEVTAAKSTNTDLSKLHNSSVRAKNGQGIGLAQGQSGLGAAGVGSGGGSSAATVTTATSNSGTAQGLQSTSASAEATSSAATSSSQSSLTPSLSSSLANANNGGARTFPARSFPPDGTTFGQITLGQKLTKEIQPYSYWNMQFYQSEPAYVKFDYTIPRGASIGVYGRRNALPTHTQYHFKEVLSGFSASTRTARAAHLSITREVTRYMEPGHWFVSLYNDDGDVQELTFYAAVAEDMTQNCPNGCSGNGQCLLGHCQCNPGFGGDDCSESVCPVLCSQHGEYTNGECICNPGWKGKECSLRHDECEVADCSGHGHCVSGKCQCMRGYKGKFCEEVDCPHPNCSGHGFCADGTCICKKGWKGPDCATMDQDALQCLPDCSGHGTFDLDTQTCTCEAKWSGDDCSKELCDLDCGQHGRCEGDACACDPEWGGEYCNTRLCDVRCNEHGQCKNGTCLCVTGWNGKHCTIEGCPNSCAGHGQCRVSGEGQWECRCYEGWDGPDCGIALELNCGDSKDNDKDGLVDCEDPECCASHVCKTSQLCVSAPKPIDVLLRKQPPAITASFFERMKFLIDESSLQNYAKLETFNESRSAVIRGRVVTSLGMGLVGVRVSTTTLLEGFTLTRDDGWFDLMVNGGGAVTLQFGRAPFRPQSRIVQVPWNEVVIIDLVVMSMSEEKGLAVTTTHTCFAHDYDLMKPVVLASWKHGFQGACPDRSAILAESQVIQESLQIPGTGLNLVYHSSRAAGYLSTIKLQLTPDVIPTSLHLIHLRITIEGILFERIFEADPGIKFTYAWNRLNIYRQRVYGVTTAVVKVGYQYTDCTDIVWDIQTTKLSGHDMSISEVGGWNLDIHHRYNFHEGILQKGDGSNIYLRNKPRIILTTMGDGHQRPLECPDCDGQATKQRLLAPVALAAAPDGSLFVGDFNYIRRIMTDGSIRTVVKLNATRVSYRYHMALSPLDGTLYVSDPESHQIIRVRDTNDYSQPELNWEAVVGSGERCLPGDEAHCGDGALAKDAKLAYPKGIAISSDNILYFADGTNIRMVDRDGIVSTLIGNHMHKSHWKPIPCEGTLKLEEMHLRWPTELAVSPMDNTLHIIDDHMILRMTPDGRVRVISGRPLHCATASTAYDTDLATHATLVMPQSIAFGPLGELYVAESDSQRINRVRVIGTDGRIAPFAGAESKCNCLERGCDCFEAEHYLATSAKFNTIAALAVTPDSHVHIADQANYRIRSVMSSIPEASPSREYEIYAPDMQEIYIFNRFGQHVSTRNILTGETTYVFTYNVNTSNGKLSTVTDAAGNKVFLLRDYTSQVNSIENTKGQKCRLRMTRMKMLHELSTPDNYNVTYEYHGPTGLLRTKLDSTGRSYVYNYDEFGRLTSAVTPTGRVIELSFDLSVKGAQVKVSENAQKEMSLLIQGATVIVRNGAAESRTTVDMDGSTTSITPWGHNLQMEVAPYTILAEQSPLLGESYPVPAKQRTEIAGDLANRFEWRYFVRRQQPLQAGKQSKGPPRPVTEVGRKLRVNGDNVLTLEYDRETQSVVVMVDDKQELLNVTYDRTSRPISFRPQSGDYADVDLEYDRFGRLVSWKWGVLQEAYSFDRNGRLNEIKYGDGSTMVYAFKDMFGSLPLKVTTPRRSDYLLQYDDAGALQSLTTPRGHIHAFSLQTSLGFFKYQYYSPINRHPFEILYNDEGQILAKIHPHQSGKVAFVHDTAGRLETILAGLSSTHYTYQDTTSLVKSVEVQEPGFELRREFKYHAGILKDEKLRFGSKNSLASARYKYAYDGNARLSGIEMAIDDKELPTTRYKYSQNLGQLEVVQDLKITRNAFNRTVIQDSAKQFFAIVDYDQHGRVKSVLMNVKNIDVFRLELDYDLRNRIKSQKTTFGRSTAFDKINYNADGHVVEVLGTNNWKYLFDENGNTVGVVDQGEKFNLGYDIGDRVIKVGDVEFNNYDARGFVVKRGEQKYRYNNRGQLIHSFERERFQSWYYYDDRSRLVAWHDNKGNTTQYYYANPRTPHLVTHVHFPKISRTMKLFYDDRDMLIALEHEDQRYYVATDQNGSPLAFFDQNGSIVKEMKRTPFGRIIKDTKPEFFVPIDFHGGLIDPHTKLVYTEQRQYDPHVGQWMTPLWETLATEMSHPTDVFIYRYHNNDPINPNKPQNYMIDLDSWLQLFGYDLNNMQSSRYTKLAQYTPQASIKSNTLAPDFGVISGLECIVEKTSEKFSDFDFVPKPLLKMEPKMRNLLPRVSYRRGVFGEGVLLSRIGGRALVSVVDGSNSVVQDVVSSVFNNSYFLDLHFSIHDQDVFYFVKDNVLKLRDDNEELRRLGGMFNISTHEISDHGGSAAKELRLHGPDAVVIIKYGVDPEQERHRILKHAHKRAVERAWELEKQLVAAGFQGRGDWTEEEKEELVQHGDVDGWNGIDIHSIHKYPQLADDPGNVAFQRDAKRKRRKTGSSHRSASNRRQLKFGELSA
UniProt Q9W1B0: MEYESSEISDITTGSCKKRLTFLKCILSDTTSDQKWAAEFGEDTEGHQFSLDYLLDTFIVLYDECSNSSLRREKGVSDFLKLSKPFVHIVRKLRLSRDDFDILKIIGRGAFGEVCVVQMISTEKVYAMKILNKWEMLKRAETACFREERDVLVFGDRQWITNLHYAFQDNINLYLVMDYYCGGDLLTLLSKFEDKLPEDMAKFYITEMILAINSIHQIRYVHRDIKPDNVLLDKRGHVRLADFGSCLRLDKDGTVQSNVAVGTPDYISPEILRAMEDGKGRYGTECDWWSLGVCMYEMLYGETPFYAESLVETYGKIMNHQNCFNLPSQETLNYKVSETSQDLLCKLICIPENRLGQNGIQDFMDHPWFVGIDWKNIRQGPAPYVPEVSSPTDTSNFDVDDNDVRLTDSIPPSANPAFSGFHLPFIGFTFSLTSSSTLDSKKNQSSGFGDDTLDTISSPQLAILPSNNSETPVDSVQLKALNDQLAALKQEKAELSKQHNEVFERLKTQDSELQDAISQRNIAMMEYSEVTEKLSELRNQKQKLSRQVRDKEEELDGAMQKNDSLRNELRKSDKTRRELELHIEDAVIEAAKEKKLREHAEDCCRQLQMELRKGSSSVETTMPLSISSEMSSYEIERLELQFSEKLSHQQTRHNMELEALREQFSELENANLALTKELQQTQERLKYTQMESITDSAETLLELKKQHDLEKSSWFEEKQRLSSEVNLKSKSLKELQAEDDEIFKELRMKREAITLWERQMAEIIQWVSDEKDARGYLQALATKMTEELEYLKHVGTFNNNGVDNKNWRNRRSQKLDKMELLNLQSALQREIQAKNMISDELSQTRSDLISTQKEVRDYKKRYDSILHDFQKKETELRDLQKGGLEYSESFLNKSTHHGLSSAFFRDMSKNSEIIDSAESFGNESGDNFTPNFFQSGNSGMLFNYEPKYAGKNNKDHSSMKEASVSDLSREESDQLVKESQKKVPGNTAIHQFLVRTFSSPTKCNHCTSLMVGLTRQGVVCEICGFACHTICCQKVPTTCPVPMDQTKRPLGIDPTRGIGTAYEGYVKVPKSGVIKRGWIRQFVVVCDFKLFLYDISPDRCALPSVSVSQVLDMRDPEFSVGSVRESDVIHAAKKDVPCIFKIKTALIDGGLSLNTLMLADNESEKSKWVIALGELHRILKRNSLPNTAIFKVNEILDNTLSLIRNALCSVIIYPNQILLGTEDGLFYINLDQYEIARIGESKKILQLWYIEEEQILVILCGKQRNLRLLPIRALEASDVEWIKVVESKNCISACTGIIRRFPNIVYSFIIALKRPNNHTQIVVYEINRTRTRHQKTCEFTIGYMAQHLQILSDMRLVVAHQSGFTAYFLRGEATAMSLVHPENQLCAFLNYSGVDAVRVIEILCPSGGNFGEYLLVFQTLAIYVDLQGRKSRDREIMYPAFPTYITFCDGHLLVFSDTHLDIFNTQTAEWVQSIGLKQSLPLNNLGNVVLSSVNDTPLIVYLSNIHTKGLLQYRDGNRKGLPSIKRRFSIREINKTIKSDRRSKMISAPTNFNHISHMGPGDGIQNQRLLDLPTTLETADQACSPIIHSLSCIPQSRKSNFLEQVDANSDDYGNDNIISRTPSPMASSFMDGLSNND
UniProt Q9V9S7: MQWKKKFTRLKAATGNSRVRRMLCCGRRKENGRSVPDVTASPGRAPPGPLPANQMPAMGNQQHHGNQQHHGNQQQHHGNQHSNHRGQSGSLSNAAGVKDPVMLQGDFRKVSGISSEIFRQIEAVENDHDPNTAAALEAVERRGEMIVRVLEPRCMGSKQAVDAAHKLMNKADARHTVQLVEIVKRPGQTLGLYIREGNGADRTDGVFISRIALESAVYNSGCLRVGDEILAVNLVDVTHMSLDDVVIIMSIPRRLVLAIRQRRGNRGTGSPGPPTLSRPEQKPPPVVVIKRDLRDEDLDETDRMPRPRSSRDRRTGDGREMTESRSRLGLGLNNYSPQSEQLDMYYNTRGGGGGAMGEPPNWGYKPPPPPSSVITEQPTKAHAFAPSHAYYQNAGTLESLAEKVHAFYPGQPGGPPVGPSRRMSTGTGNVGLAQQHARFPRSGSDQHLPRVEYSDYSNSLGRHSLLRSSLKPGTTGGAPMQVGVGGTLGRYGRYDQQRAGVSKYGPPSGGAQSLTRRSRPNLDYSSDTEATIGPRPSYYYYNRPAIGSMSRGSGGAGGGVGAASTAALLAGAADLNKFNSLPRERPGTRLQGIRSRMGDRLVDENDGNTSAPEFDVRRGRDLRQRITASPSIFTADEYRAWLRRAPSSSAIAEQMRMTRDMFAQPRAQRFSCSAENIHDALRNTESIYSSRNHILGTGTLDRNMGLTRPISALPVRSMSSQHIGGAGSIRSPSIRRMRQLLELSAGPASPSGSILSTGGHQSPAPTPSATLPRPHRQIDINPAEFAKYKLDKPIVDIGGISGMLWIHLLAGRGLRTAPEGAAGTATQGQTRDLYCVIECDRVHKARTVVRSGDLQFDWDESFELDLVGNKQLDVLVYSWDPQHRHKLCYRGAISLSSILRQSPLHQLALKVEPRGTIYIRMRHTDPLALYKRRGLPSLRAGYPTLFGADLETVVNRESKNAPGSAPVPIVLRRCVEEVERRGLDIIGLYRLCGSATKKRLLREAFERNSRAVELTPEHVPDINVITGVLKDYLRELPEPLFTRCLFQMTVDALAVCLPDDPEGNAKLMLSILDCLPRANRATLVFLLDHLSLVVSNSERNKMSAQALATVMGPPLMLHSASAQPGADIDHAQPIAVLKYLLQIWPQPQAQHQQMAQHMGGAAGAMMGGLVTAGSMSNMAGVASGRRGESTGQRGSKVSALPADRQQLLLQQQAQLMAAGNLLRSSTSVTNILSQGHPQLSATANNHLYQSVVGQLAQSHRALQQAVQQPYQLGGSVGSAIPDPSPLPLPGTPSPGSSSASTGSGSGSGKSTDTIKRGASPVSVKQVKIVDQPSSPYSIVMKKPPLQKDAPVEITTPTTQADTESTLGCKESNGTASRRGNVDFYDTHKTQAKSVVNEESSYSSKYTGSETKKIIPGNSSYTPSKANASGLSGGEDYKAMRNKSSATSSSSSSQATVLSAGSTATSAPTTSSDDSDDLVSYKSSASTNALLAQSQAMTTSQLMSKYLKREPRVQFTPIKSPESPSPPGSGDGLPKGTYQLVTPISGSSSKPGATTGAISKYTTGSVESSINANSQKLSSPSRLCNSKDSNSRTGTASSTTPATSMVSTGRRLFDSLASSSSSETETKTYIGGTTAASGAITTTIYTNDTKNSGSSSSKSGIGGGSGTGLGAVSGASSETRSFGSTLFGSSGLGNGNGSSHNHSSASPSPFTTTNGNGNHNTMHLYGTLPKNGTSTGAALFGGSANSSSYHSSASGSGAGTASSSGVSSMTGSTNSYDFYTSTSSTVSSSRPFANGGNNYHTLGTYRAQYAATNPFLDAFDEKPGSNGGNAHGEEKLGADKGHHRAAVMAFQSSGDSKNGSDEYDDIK

In paper PMC11833509 one finds binding data, which are given here for two substances.

This assay concerns the target APEX2-V5-Ten-m (CRISPR knock-in at the endogenous Ten-m locus) (Drosophila melanogaster (endogenous in pupal brain)) (UniProt O61307). The assay can be described thus: proximity labelling; APEX2-V5-Ten-m knock-in pupal brains at 48h APF; 100 μM biotin-phenol 1 h on ice, 1 mM H2O2 1 min; streptavidin enrichment, 6-plex TMT LC-MS/MS; ratios against negative control and CD4-APEX2-V5 spatial reference.

Take “Genghis Khan (Gek), endogenous (from UniProt Q9W1B0 1-1637)”: the binding result was “binds”. The same measure for “RhoGAP100F (Syd1), endogenous (from UniProt Q9V9S7 1-1866)”: “binds”.
